Patent publication US20090143279A1 (priority 2007, published 2009)
Where a name gives a salt, the structure may show the parent alone. Read-outs that look alike come from different tables or passages of the source. At least one read-out could not be matched to a standard name with certainty.

How the values were obtained:
[1] = system: nuOXPHOS transcripts; type: cell-based, mouse
[2] = system: C2C12 myotubes
[3] = system: OXPHOS gene expression; type: cell-based, mouse
[4] = system: reactive oxygen species; type: cell-based, mouse
[5] = system: cellular dehydrogenase activity
[6] = system: mitochondrial membrane potential; type: cell-based, mouse
[7] = system: mtOXPHOS transcripts; type: cell-based, mouse
[8] = composite Z-score vs mock-treated (DMSO) wells, concentration of each compound in μM

Compound | nucOX [1] | Viability [2] | GE-HTS [3] | ROS [4] | MTT [5] | ΔΨm [6] | mitoOX [7] | nucOX [1, 8] | Viability [2, 8] | GE-HTS [3, 8] | ROS [4, 8] | MTT [5, 8] | ΔΨm [6, 8] | mitoOX [7, 8] | other results
CC1CCC(C(C)C)C(O)C1 (stereo not drawn) [menthol] | −1.028 | −0.489 | −1.207 | 1.316 | −0.673 | −0.872 | −1.345 |  |  |  |  |  |  |  | 
CC[N+](C)(C)Cc1ccccc1Br [bretylium] | 1.057 | −0.775 | 0.996 | 0.632 | −0.446 |  | 0.732 |  |  |  |  |  |  |  | nucOX (composite Z-score) [1]: 0.245; Viability (composite Z-score) [2]: −0.520; GE-HTS (composite Z-score) [3]: 0.113; ROS (composite Z-score) [4]: 0.191; MTT (composite Z-score) [5]: −0.192; ΔΨm (composite Z-score) [6]: −0.347; mitoOX (composite Z-score) [7]: −0.195
CC(=O)N[C@@H](CC(C)C)C(=O)O [N-acetyl-L-leucine] | −0.410 | −0.252 | −0.316 | 0.537 | −0.698 | −0.581 | −0.067 |  |  |  |  |  |  |  | 
CC(C)=CCC[C@]1(C)C=Cc2c(O)c3c(c(CC=C(C)C)c2O1)O[C@]12C(=C[C@@H]4C[C@H]1C(C)(C)O[C@@]2(C/C=C(/C)C(=O)O)C4=O)C3=O [gambogic acid] |  |  |  |  |  |  |  | −4.010 | −5.389 | −3.830 | −4.200 | −6.656 | −4.102 | −2.680 | 
CCN(CC)C(=O)N[C@H]1C=C2c3cccc4[nH]cc(c34)C[C@H]2N(C)C1 [lisuride] |  |  |  |  |  |  |  |  |  |  |  |  |  |  | nucOX (composite Z-score) [1]: −0.922; Viability (composite Z-score) [2]: −0.329; GE-HTS (composite Z-score) [3]: −0.899; ROS (composite Z-score) [4]: 0.023; MTT (composite Z-score) [5]: −2.069; ΔΨm (composite Z-score) [6]: −0.838; mitoOX (composite Z-score) [7]: −0.723
CCC(NC(C)C)C(O)c1ccc(O)c2[nH]c(=O)ccc12 (stereo not drawn) [procaterol] |  |  |  |  |  |  |  | 0.298 | 0.002 | 0.094 | 0.795 | −1.049 | −0.363 | −0.336 | 
CCCCCCCCCCCCCCCC[n+]1ccccc1 [cetylpyridinium] |  |  |  |  |  |  |  |  |  |  |  |  |  |  | nucOX (composite Z-score vs DMSO) [1]: −2.717; Viability (composite Z-score vs DMSO) [2]: −4.516; GE-HTS (composite Z-score vs DMSO) [3]: −1.684; ROS (composite Z-score vs DMSO) [4]: −2.465; MTT (composite Z-score vs DMSO) [5]: −4.298; ΔΨm (composite Z-score vs DMSO) [6]: −2.898; mitoOX (composite Z-score vs DMSO) [7]: 0.819
CC[C@]1(O)C[C@@H]2CN(CCc3c([nH]c4ccccc34)[C@@](C(=O)OC)(c3cc4c(cc3OC)N(C)[C@H]3[C@@](O)(C(=O)OC)[C@H](OC(C)=O)[C@]5(CC)C=CCN6CC[C@]43[C@@H]65)C2)C1 [vinblastine sulfate, reference compound] |  |  |  |  |  |  |  | 2.088 | 1.466 | 2.083 | −1.327 | −2.171 | 0.665 | 1.636 | 
Cc1n[nH]c(=O)[nH]c1=O [6-azathymine] | −0.176 | 1.057 | −0.464 | −0.053 | −0.772 | −0.350 | −0.964 |  |  |  |  |  |  |  | 
CCCCOc1ccc(C(=O)CCN2CCCCC2)cc1 [dyclonine] | −0.137 | −0.872 | −0.237 | 0.775 | −0.221 | −0.746 | −0.405 |  |  |  |  |  |  |  | 
CO/N=C1\CN(c2nc3c(cc2F)c(=O)c(C(=O)O)cn3C2CC2)CC1CN (stereo not drawn) [gemifloxacin] |  |  |  |  |  |  |  | 0.287 | −0.578 | 0.256 | 0.992 | −1.445 | −1.057 | 0.203 | 
COc1ccc(C(C)=O)c(O)c1 [paeonol] | −0.613 | 0.551 | −0.667 | 0.103 | −0.944 | −0.424 | −0.694 |  |  |  |  |  |  |  | 
O=C(OCc1ccccc1)c1ccccc1 [benzyl benzoate] |  |  |  |  |  |  |  |  |  |  |  |  |  |  | nucOX (composite Z-score vs DMSO) [1]: −0.765; Viability (composite Z-score vs DMSO) [2]: 0.328; GE-HTS (composite Z-score vs DMSO) [3]: −0.734; ROS (composite Z-score vs DMSO) [4]: −0.086; MTT (composite Z-score vs DMSO) [5]: −0.729; ΔΨm (composite Z-score vs DMSO) [6]: −0.596; mitoOX (composite Z-score vs DMSO) [7]: −0.489
O=C1C=C(O)C(=O)c2ccccc21 [lawsone] | 0.240 | −0.304 | 0.227 | −0.103 | −0.834 | −0.260 | 0.163 |  |  |  |  |  |  |  | 
Cn1cnc2c1c(=O)[nH]c(=O)n2C [theobromine] | −0.294 | −1.067 | −0.141 | 0.512 | −0.948 | −0.513 | 0.207 |  |  |  |  |  |  |  | 
CC(NCCC(c1ccccc1)c1ccccc1)c1ccccc1 (stereo not drawn) [fendiline] | 0.636 | 0.636 | 0.614 | 1.303 | 0.307 | 0.421 | 0.448 |  |  |  |  |  |  |  | 
OC(Cn1cncn1)(Cn1cncn1)c1ccc(F)cc1F [fluconazole] |  |  |  |  |  |  |  |  |  |  |  |  |  |  | nucOX (composite Z-score vs DMSO) [1]: −0.543; Viability (composite Z-score vs DMSO) [2]: 0.018; GE-HTS (composite Z-score vs DMSO) [3]: −0.329; ROS (composite Z-score vs DMSO) [4]: 0.167; MTT (composite Z-score vs DMSO) [5]: 0.188; ΔΨm (composite Z-score vs DMSO) [6]: −0.480; mitoOX (composite Z-score vs DMSO) [7]: 0.216
CN1[C@@H]2CC[C@H]1C[C@@H](OC(c1ccccc1)c1ccccc1)C2 [benztropine] |  |  |  |  |  |  |  |  |  |  |  |  |  |  | nucOX (composite Z-score, nuclear-encoded OXPHOS expression) [1]: −0.183; Viability (composite Z-score vs DMSO mock-treated wells) [2]: −0.529; GE-HTS (composite Z-score, OXPHOS gene expression) [3]: −0.332; ROS (composite Z-score vs DMSO mock-treated wells) [4]: 1.455; MTT (composite Z-score vs DMSO mock-treated wells) [5]: −2.046; ΔΨm (composite Z-score vs DMSO mock-treated wells) [6]: 0.055; mitoOX (composite Z-score, mtDNA-encoded OXPHOS expression) [7]: −0.624
C=C(NC(=O)C(=C)NC(=O)c1csc(C2=N[C@@H]3c4csc(n4)[C@H]4NC(=O)c5csc(n5)[C@H]([C@](C)(O)[C@@H](C)O)NC(=O)[C@H]5CSC(=N5)/C(=C/C)NC(=O)[C@H]([C@@H](C)O)NC(=O)c5csc(n5)[C@]3(CC2)NC(=O)[C@H](C)NC(=O)C(=C)NC(=O)[C@H](C)NC(=O)[C@H]([C@@H](C)CC)N[C@@H]2C=Cc3c([C@H](C)O)cc(nc3[C@H]2O)C(=O)O[C@@H]4C)n1)C(N)=O [thiostrepton] |  |  |  |  |  |  |  | −0.162 | −0.979 | 0.357 | −0.494 | −2.771 | −0.160 | 1.338 | 
COc1ccc([C@@H]2Sc3ccccc3N(CCN(C)C)C(=O)[C@@H]2OC(C)=O)cc1 [diltiazem] | −0.403 | −0.542 | −0.618 | 1.020 | −2.284 |  | −0.882 |  |  |  |  |  |  |  | nucOX (composite Z-score vs DMSO) [1]: −1.266; Viability (composite Z-score vs DMSO) [2]: −0.495; GE-HTS (composite Z-score vs DMSO) [3]: −1.187; MTT (composite Z-score vs DMSO) [5]: −2.102; ΔΨm (composite Z-score vs DMSO) [6]: −1.238; mitoOX (composite Z-score vs DMSO) [7]: −0.849
CCn1cc(C(=O)O)c(=O)c2cc3c(cc21)OCO3 [oxolinic acid] | −1.010 | −0.516 | −0.933 | 1.339 | −2.028 | −0.445 | −0.639 |  |  |  |  |  |  |  | 
C[C@H]1[C@H](C)CC[C@]2(C(=O)O)CC[C@]3(C)C(=CC[C@@H]4[C@@]5(C)C[C@@H](O)[C@H](O)[C@@](C)(CO)[C@@H]5[C@H](O)C[C@]43C)[C@H]12 [madecassic acid] |  |  |  |  |  |  |  | 0.493 | 0.982 | 0.505 | −0.132 | −0.798 | 0.374 | 0.468 | 
O=C(NC(Cc1cc(=O)[nH]c2ccccc12)C(=O)O)c1ccc(Cl)cc1 (stereo not drawn) [rebamipide] |  |  |  |  |  |  |  | −0.328 | −0.517 | −0.100 | 0.967 | −1.340 | −0.129 | 0.331 | 
CCCCc1cc2ccccc2c(OCCN(C)C)n1 [dimethisoquin] |  |  |  |  |  |  |  | 0.140 | 0.300 | 0.302 | 1.731 | −0.838 | −0.222 | 0.575 | 
O=c1[nH]c2ccccc2n1CCCN1CCC(n2c(=O)[nH]c3cc(Cl)ccc32)CC1 [domperidone] | −0.029 | 0.888 | −0.099 | 0.152 | −0.331 | 0.126 | −0.234 |  |  |  |  |  |  |  | 
Cn1c(=O)c2[nH]cnc2n(C)c1=O [aminophylline] |  |  |  |  |  |  |  |  |  |  |  |  |  |  | nucOX (composite Z-score vs DMSO) [1]: −0.287; Viability (composite Z-score vs DMSO) [2]: −0.239; GE-HTS (composite Z-score vs DMSO) [3]: −0.347; ROS (composite Z-score vs DMSO) [4]: 0.982; MTT (composite Z-score vs DMSO) [5]: −0.274; ΔΨm (composite Z-score vs DMSO) [6]: 0.309; mitoOX (composite Z-score vs DMSO) [7]: −0.406
CC(=O)CC(c1ccccc1)c1c(O)c2ccccc2oc1=O (stereo not drawn) [warfarin] | −0.040 | −0.573 | 0.117 | 1.144 | −1.607 | −0.869 | 0.411 |  |  |  |  |  |  |  | 
NC(=O)c1cc[n+](CC2=C(C(=O)O)N3C(=O)[C@@H](NC(=O)[C@@H](c4ccccc4)S(=O)(=O)[O-])[C@H]3SC2)cc1 [cefsulodin] |  |  |  |  |  |  |  | 0.516 | −0.348 | 0.455 | 1.553 | 0.132 | −0.784 | 0.204 | 
